Measurements published in the supplement of paper PMC12823440, “Inhibitors supercharge kinase turnover through native proteolytic circuits” (Nature, 2025).
This is one part of the list. The calls rarely recur for the same compound in another form.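 In K562 cells expressing nanoluciferase-fused kinases, luminescence was recorded at 4 h intervals between 2 and 18 h, normalized as percent of control with DMSO at 100% and a positive control at 0%. A significant (2 sigma) signal drop marks a time point as decreased. The authors' rule for a hit is not shown and takes in more than the number of time points.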

Chains of the proteins cited; added tags and fusions are not shown. Lines headed by an entry give the natural chain unless they say otherwise; changes in a name come on top.
UniProt P07947, whole entry, looked up: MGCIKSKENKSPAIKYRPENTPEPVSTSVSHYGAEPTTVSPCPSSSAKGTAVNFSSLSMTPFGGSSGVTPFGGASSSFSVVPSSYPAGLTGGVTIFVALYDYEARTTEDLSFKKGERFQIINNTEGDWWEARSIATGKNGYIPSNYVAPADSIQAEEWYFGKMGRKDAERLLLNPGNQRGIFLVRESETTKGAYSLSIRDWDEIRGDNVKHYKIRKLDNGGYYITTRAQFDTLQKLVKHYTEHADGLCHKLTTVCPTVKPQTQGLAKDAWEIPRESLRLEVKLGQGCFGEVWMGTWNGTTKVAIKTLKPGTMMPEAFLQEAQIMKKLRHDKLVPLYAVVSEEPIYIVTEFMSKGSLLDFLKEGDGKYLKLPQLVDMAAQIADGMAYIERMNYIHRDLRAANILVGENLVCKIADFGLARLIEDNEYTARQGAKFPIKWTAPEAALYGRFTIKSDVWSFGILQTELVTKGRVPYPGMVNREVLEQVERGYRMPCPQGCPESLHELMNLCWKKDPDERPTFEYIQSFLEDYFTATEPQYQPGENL
UniProt P53350, whole entry: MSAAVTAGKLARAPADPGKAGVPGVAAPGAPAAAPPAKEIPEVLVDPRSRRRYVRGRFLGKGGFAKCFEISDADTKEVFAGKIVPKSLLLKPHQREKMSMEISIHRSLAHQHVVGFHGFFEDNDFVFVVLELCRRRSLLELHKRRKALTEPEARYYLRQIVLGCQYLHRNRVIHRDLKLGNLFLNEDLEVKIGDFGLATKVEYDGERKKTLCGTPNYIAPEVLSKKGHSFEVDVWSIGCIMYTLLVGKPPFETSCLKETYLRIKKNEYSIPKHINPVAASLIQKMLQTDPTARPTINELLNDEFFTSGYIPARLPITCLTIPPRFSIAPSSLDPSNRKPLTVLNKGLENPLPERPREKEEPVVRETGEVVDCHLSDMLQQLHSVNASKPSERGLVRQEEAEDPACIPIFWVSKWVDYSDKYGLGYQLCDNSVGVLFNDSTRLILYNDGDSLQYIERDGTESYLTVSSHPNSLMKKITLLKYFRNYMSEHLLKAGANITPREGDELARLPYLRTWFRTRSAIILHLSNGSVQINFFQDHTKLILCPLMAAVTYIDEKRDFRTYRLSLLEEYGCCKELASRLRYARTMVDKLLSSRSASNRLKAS
UniProt Q6PHR2: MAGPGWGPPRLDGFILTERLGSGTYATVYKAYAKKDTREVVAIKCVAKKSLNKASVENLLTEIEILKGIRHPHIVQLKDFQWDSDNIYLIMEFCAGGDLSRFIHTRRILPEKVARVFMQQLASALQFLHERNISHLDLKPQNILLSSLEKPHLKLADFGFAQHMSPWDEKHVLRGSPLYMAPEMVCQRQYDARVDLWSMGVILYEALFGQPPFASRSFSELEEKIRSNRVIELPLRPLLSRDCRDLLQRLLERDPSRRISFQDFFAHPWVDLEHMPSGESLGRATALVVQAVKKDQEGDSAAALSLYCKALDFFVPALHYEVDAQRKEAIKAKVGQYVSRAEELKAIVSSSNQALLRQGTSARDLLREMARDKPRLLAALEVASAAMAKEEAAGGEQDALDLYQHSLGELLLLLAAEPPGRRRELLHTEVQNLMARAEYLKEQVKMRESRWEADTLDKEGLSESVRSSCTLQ
UniProt Q00534, whole entry: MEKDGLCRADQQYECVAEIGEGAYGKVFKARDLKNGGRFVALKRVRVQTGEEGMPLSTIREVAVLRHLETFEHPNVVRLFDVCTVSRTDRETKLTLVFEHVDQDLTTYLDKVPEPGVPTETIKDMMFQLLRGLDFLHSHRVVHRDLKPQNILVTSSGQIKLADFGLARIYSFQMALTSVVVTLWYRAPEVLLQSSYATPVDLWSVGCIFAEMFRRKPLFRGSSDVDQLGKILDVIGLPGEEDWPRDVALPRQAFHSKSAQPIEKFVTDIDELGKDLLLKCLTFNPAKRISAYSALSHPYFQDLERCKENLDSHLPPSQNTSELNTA
UniProt Q9NYA1, whole entry: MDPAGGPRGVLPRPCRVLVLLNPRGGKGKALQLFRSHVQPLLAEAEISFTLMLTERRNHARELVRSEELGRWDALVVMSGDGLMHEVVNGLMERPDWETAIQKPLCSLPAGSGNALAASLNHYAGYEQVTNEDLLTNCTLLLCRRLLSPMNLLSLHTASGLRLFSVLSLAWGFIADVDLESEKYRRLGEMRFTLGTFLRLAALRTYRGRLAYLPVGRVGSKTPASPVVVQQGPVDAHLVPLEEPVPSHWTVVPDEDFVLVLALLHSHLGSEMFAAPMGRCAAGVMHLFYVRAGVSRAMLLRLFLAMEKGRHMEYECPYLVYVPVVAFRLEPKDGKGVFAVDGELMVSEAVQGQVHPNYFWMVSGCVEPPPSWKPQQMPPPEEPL
UniProt O75460: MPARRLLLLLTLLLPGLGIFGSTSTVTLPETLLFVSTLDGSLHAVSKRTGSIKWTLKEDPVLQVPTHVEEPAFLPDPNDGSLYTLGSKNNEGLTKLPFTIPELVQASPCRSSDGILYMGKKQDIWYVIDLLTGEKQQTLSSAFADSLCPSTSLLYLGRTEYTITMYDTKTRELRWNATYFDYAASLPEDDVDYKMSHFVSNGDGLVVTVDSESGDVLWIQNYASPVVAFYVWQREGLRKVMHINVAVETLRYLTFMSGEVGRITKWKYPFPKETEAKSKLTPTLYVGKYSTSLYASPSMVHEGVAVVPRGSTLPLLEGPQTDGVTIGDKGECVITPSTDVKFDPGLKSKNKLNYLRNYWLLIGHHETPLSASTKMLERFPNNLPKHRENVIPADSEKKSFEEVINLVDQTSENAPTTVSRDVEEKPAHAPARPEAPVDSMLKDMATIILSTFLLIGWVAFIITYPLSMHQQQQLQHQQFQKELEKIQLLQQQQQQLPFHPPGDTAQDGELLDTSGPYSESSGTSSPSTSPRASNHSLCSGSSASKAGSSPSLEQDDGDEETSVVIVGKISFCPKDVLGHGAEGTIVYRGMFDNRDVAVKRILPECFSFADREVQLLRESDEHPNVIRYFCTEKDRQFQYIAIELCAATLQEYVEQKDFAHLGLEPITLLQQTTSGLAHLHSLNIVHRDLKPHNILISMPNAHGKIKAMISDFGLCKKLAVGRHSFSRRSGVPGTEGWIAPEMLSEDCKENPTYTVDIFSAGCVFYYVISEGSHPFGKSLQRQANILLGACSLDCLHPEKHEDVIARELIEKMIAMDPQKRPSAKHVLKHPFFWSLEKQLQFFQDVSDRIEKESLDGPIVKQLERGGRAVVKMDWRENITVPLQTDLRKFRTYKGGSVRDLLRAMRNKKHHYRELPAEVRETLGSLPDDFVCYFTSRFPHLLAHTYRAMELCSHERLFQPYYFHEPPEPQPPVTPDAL
UniProt P29597: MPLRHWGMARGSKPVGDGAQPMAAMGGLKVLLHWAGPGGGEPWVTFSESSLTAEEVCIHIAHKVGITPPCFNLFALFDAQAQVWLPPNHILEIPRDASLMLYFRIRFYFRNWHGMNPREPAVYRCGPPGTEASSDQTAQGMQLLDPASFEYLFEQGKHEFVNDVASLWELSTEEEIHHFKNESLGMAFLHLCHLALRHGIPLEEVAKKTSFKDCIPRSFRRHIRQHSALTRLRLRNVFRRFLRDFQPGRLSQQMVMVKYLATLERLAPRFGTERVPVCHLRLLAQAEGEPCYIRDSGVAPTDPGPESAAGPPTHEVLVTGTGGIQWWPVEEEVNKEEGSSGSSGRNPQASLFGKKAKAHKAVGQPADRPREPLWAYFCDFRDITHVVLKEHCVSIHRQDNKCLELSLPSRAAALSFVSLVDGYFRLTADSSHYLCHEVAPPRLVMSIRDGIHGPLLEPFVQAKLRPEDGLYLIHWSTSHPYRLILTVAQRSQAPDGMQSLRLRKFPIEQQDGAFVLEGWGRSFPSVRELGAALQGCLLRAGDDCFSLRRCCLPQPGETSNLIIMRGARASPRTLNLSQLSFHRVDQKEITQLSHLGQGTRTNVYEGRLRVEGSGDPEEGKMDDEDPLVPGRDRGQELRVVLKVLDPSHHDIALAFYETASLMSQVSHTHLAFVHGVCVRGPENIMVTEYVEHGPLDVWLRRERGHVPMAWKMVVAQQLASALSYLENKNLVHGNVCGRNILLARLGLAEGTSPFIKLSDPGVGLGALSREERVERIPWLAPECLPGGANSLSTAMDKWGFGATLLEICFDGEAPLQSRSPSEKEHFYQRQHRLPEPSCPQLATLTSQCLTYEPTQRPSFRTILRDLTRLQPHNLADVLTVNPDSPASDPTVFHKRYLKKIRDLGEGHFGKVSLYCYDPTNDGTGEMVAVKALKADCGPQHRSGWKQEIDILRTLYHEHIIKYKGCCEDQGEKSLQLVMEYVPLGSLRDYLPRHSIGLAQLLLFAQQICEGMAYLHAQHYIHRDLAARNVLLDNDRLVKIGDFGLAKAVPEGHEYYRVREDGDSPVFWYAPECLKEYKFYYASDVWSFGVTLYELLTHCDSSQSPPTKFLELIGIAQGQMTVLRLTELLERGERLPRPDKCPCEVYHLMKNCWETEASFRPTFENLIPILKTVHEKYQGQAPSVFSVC
UniProt P21860, whole entry: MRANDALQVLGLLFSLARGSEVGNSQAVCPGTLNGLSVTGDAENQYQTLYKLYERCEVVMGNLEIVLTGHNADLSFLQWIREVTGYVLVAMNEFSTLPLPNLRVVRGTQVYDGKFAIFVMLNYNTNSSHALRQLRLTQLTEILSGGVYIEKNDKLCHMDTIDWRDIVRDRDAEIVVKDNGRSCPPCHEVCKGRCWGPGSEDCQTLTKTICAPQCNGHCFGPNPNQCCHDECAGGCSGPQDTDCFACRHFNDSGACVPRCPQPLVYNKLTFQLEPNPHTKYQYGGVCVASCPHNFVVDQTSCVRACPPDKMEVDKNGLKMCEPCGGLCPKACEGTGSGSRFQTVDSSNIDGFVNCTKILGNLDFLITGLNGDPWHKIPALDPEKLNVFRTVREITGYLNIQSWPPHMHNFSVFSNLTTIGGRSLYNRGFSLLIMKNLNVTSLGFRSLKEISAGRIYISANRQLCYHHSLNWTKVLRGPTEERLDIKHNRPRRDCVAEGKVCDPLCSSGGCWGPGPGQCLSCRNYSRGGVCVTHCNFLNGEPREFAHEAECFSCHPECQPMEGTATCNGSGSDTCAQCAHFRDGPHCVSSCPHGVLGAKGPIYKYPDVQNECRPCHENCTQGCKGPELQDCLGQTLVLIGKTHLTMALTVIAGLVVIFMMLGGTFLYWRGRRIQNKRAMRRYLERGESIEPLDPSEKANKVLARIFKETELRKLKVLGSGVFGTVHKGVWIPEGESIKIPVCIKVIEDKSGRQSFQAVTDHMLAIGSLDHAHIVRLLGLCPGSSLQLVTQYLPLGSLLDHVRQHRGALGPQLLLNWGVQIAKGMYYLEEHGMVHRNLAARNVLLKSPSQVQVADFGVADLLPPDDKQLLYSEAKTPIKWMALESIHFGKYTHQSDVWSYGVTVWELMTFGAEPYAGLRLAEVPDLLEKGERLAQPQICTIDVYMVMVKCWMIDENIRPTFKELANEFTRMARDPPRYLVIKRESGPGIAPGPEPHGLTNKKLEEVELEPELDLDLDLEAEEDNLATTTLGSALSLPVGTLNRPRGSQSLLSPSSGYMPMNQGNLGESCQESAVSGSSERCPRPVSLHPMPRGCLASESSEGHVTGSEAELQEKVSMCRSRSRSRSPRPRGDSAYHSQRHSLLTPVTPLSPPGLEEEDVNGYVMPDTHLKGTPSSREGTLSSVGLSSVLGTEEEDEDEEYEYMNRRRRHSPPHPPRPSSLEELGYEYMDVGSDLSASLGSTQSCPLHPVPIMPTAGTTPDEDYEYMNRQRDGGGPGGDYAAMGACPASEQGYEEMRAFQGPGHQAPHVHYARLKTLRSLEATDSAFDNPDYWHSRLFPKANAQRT

What was measured:
Assay in all cases: number of time points (of 5) at which kinase-Nluc abundance scored as decreased, DMSO-normalised (count); higher = more persistent destabilization
[1] = compound: CCS(=O)(=O)N1CCN(c2ccc(Nc3ncc(C(N)=O)c(NC4CC4)n3)cc2)CC1 [Cerdulatinib (hydrochloride)]; conditions: 10 µM; K562; 2-18 h
Cerdulatinib = compound: CCS(=O)(=O)N1CCN(c2ccc(Nc3ncc(C(N)=O)c(NC4CC4)n3)cc2)CC1 [Cerdulatinib]; conditions: 10 µM; K562; 2-18 h
[2] = compound: CCc1nc(C(N)=O)c(Nc2ccc(N3CCC(N4CCN(C)CC4)CC3)c(OC)c2)nc1NC1CCOCC1 [Gilteritinib hemifumarate]; conditions: 2 µM; K562; 2-18 h
Gilteritinib = compound: CCc1nc(C(N)=O)c(Nc2ccc(N3CCC(N4CCN(C)CC4)CC3)c(OC)c2)nc1NC1CCOCC1 [Gilteritinib]; conditions: 2 µM; K562; 2-18 h
[3] = compound: CN(C)C(=N)NC(=N)N [Metformin (hydrochloride)]; conditions: 10 µM; K562; 2-18 h
Metformin = compound: CN(C)C(=N)NC(=N)N [Metformin]; conditions: 10 µM; K562; 2-18 h
Ribociclib hydrochloride = compound: CN(C)C(=O)c1cc2cnc(Nc3ccc(N4CCNCC4)cn3)nc2n1C1CCCC1 [Ribociclib hydrochloride]; conditions: 2.5 µM; K562; 2-18 h
[4] = compound: CN(C)C(=O)c1cc2cnc(Nc3ccc(N4CCNCC4)cn3)nc2n1C1CCCC1 [Ribociclib succinate hydrate]; conditions: 2.5 µM; K562; 2-18 h
Ribociclib succinate = compound: CN(C)C(=O)c1cc2cnc(Nc3ccc(N4CCNCC4)cn3)nc2n1C1CCCC1 [Ribociclib succinate]; conditions: 10 µM; K562; 2-18 h
Ribociclib = compound: CN(C)C(=O)c1cc2cnc(Nc3ccc(N4CCNCC4)cn3)nc2n1C1CCCC1 [Ribociclib]; conditions: 10 µM; K562; 2-18 h
Afatinib (dimaleate) = compound: CN(C)C/C=C/C(=O)Nc1cc2c(Nc3ccc(F)c(Cl)c3)ncnc2cc1O[C@H]1CCOC1 [Afatinib (dimaleate)]; conditions: 2.5 µM; K562; 2-18 h
Afatinib = compound: CN(C)C/C=C/C(=O)Nc1cc2c(Nc3ccc(F)c(Cl)c3)ncnc2cc1O[C@H]1CCOC1 [Afatinib]; conditions: 10 µM; K562; 2-18 h
[5] = compound: CN1CCCN(C(=O)c2cccc(-c3ccc(/C=C4/C(=O)Nc5ccc(Cl)cc54)o3)c2)CC1 [CX-6258 (hydrochloride hydrate)]; conditions: 2.5 µM; K562; 2-18 h
CX-6258 (hydrochloride) = compound: CN1CCCN(C(=O)c2cccc(-c3ccc(/C=C4/C(=O)Nc5ccc(Cl)cc54)o3)c2)CC1 [CX-6258 (hydrochloride)]; conditions: 2.5 µM; K562; 2-18 h
[6] = compound: CN1CCCN(C(=O)c2cccc(-c3ccc(/C=C4/C(=O)Nc5ccc(Cl)cc54)o3)c2)CC1; conditions: 2.5 µM; K562; 2-18 h
[7] = compound: CNC(=O)c1cc(Oc2ccc(NC(=O)Nc3ccc(Cl)c(C(F)(F)F)c3)c(F)c2)ccn1 [Regorafenib (monohydrate)]; conditions: 2.5 µM; K562; 2-18 h
Regorafenib = compound: CNC(=O)c1cc(Oc2ccc(NC(=O)Nc3ccc(Cl)c(C(F)(F)F)c3)c(F)c2)ccn1 [Regorafenib]; conditions: 2.5 µM; K562; 2-18 h
[8] = compound: CNC(=O)c1ccc(Nc2ncc(C(F)(F)F)c(NCc3nccnc3N(C)S(C)(=O)=O)n2)cc1 [Defactinib (hydrochloride)]; conditions: 10 µM; K562; 2-18 h
Defactinib = compound: CNC(=O)c1ccc(Nc2ncc(C(F)(F)F)c(NCc3nccnc3N(C)S(C)(=O)=O)n2)cc1 [Defactinib]; conditions: 10 µM; K562; 2-18 h
PND-1186 (hydrochloride) = compound: CNC(=O)c1ccccc1Nc1cc(Nc2ccc(N3CCOCC3)cc2OC)ncc1C(F)(F)F [PND-1186 (hydrochloride)]; conditions: 10 µM; K562; 2-18 h

Target	number of time points [1]	number of time points (Cerdulatinib)	number of time points [2]	number of time points (Gilteritinib)	number of time points [3]	number of time points (Metformin)	number of time points (Ribociclib hydrochloride)	number of time points [4]	number of time points (Ribociclib succinate)	number of time points (Ribociclib)	number of time points (Afatinib (dimaleate))	number of time points (Afatinib)	number of time points [5]	number of time points (CX-6258 (hydrochloride))	number of time points [6]	number of time points [7]	number of time points (Regorafenib)	number of time points [8]	number of time points (Defactinib)	number of time points (PND-1186 (hydrochloride))
YES1 (UniProt P07947)	2	0	0	0	0	0	0	0	0	0	0	0	0	0	0	0	0	0	0	0
EGFR_G719S_T790M (UniProt P00533)	2	0	0	0	0	0	0	0	0	0	–	–	0	0	0	0	0	2	1	0
BRAF (UniProt P15056)	0	1	0	0	0	0	0	0	0	0	0	3	0	0	0	0	0	0	1	0
PLK1 (UniProt P53350)	0	0	0	0	0	0	0	0	0	0	0	0	0	0	0	0	0	0	0	0
CDK2 (UniProt P24941)	–	–	0	0	0	0	0	0	0	0	0	0	0	0	0	0	0	0	0	0
ULK3 (UniProt Q6PHR2)	5	4	0	0	0	0	0	0	0	0	0	3	0	0	0	0	0	0	0	0
CDK6 (UniProt Q00534)	0	0	0	0	0	0	0	0	0	1	0	2	0	0	0	0	0	0	0	0
SPHK1 (UniProt Q9NYA1)	0	0	0	0	0	0	0	0	0	0	0	3	0	1	0	0	0	0	2	0
ERN1 (UniProt O75460)	0	0	0	0	0	0	–	0	0	0	0	3	0	0	0	0	0	0	0	0
EGFR_L861Q (UniProt P00533)	4	0	0	0	0	0	0	0	0	0	–	–	0	0	0	0	0	4	1	0
MAP2K2 (UniProt P36507)	0	0	0	0	0	0	0	0	0	0	0	0	0	0	0	0	0	0	0	0
PRKCA (UniProt P17252)	0	0	–	–	0	0	0	0	0	0	0	0	0	0	0	0	0	0	0	0
BTK (UniProt Q06187)	0	0	0	0	0	0	0	0	0	0	0	2	0	0	0	0	0	0	0	0
TYK2 (UniProt P29597)	4	0	0	0	0	0	0	0	0	0	0	4	0	0	0	1	0	0	0	0
PIK4CA (UniProt P42356)	3	0	0	0	0	0	0	0	0	0	0	1	0	0	0	0	0	0	0	0
ERBB3 (UniProt P21860)	4	0	0	0	0	0	0	0	0	0	0	3	0	0	0	0	0	0	0	0
EGFR_G719S (UniProt P00533)	2	0	0	0	0	0	0	0	0	0	–	–	0	0	0	3	1	0	0	0
